Results reported in paper PMC5316860.
No constants are given. Whether binding was seen depends on the method and setting. In cells and extracts the contact can be indirect. Some binding calls cover weakened binding; strength is not graded here. For part of these data: Where a sequence is shown, tags or fusion partners need not be part of it.

Protein sequences, listed by entry. Tags and fused reporters are not part of them. Lines headed by an entry give the natural chain unless they say otherwise; changes in a name come on top.
UniProt Q93008: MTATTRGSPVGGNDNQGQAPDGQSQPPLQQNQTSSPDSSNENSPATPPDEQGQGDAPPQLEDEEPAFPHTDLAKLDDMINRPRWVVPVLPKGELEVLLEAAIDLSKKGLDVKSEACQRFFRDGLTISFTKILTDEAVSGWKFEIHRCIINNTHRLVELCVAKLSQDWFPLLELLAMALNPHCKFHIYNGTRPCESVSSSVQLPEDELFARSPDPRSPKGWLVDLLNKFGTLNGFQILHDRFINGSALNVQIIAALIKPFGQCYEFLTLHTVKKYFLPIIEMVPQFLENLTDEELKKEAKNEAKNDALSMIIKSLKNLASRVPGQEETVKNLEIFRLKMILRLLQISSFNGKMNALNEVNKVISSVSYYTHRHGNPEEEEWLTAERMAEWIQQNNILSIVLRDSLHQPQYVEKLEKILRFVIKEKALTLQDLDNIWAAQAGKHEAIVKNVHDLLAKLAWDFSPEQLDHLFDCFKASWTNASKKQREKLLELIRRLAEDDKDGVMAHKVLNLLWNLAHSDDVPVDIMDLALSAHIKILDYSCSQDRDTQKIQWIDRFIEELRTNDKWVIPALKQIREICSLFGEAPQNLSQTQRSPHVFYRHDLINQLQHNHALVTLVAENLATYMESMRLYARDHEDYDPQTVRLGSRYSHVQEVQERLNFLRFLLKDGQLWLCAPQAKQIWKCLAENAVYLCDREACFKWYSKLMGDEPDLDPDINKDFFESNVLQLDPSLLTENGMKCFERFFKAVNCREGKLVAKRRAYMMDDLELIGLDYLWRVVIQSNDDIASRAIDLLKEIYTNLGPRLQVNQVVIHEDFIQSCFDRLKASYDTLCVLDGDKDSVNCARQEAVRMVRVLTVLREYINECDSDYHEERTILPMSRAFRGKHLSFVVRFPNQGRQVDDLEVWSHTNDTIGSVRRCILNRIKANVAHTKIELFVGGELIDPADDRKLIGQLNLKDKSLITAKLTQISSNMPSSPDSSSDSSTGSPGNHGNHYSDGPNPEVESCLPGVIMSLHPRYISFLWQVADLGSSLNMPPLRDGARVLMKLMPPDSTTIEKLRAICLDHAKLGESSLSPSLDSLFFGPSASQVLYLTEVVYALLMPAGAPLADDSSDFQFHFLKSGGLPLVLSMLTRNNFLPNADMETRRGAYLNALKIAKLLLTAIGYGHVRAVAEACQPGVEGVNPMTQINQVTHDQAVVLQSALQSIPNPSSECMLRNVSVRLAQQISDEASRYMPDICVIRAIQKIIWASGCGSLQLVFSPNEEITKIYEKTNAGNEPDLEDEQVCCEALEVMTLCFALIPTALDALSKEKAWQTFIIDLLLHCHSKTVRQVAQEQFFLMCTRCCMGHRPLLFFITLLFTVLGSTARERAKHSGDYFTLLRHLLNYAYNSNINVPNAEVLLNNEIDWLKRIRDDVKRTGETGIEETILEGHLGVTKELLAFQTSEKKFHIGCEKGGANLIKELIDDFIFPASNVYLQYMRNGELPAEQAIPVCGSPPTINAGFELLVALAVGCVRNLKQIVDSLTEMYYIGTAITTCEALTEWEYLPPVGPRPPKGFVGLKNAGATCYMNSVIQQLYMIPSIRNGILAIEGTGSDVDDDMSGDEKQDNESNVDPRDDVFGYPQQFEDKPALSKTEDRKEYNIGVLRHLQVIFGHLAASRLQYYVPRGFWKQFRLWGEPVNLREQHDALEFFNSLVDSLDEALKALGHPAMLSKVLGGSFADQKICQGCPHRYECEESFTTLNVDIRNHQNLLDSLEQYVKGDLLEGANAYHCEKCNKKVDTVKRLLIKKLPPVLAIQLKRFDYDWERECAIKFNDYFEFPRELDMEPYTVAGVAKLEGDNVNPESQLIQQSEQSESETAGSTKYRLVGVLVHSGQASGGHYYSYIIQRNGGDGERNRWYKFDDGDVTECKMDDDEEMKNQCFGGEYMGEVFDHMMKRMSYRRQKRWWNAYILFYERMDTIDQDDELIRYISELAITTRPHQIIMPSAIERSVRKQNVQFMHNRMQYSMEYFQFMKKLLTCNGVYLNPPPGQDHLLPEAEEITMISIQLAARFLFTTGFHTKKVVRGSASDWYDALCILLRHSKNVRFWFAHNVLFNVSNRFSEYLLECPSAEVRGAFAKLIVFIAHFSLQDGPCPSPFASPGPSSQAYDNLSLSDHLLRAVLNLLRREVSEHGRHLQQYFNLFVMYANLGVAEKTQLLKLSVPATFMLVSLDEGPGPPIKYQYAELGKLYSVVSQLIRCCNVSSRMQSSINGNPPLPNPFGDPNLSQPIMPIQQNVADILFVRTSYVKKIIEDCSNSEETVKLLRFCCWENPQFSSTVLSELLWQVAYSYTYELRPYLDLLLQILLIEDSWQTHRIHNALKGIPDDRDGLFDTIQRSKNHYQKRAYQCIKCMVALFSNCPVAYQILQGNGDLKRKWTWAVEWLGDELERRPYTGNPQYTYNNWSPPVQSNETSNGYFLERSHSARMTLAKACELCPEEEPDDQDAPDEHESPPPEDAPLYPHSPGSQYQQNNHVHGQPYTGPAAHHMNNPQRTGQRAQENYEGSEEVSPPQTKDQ

How the values were obtained:
HA-Ets-1 (WT) (human) = biological target: T1, HA-Ets-1 (WT) (human) (UniProt P14921); assay: co-IP; FLAG-Usp9x constructs co-expressed with HA-Ets-1 in HEK293T, 48 h; lysate adjusted to 100 mM NaCl and 0.125% IGEPAL CA-630; anti-HA (Ets-1) overnight, protein A/G, 4 °C; anti-FLAG immunoblot
T1 sequence: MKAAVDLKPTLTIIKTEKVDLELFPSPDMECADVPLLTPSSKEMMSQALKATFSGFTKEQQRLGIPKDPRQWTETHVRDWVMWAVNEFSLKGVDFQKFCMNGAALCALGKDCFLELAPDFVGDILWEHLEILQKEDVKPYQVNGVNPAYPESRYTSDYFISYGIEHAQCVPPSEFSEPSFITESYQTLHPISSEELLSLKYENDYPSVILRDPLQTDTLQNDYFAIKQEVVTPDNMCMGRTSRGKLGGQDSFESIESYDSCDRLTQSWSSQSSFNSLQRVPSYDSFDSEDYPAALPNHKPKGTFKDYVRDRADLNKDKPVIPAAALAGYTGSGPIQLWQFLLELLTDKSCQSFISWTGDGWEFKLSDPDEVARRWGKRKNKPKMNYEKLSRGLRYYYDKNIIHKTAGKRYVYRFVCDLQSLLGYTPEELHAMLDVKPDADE

[1] = biological target: T2, Ets-1, endogenous in SK-Mel2 cells (human (endogenous in SK-Mel2)) (UniProt P14921); assay: co-IP; endogenous proteins in SK-Mel2 lysate; lysis in 25 mM HEPES pH 7.5, 400 mM NaCl, 0.5% IGEPAL CA-630, diluted to 100 mM NaCl and 0.125% IGEPAL; anti-Usp9x or anti-Ets-1 (reciprocal) against rabbit control IgG, protein A/G agarose, 4 °C; immunoblot
T2 sequence: T1 sequence

binding (HA-Ets-1 (WT) (human))	binding [1]	Substance
binds	–	FLAG-Usp9x (full-length) (from UniProt Q93008 1-2554) (enzyme)
binds	–	FLAG-Usp9x-CDM (catalytic domain mutant, C1566A) (from UniProt Q93008 1-2554) (enzyme)
–	binds	Usp9x (ubiquitin specific peptidase 9, X-linked), endogenous in SK-Mel2 cells (from UniProt Q93008 1-2554) (enzyme)
